According to paper PMC10966525:
These are yes or no findings as the source states them, for the method shown. Binding seen in cells or lysates may run through a third protein. Some entries that bind do so weakly or less than the wild type.

Sequences of proteins named here, by UniProt entry; tags and fusion partners are left off. A change or cut given only in a name is not applied to a line headed by its entry. Residues count along the entry.
UniProt Q68DV7, residues 24-783: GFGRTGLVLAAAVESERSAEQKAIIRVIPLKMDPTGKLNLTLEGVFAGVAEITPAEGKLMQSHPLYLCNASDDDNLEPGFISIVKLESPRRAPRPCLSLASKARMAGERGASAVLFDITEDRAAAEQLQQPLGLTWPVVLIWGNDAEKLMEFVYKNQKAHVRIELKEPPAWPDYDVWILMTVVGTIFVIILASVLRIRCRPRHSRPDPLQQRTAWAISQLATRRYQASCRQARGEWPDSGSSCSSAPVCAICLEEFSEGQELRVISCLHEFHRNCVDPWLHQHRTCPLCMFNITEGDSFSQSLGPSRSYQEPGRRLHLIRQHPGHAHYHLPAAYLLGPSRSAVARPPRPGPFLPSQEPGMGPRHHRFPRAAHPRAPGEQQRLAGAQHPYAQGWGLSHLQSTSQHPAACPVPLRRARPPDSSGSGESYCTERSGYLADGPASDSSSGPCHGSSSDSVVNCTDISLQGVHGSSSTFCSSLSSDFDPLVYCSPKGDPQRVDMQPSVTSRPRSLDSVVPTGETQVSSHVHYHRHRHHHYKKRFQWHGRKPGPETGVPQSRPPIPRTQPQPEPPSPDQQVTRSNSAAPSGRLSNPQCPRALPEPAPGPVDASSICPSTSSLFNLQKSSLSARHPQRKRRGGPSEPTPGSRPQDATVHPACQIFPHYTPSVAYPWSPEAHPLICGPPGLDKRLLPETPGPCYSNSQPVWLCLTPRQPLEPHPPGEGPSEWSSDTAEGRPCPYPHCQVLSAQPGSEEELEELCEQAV
UniProt P15056: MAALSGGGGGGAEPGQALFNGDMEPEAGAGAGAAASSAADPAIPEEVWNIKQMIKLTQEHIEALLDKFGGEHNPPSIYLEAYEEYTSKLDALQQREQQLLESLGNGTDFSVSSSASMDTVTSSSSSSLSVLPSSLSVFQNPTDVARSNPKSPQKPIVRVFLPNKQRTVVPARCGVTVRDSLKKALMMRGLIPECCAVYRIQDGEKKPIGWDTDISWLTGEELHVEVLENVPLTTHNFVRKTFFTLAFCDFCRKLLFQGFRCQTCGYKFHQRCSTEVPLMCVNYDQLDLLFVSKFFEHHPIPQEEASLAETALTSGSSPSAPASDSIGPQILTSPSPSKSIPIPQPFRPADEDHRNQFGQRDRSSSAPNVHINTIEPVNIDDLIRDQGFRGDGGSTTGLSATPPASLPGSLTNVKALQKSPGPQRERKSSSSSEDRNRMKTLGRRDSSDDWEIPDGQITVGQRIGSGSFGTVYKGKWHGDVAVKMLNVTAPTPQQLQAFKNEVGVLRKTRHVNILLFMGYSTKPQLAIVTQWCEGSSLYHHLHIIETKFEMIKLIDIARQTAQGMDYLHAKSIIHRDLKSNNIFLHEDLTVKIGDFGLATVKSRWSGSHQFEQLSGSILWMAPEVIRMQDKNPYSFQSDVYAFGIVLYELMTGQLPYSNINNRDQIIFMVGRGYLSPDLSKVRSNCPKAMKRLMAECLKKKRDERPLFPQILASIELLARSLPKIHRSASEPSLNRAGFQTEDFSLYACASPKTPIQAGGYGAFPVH
UniProt Q9P286: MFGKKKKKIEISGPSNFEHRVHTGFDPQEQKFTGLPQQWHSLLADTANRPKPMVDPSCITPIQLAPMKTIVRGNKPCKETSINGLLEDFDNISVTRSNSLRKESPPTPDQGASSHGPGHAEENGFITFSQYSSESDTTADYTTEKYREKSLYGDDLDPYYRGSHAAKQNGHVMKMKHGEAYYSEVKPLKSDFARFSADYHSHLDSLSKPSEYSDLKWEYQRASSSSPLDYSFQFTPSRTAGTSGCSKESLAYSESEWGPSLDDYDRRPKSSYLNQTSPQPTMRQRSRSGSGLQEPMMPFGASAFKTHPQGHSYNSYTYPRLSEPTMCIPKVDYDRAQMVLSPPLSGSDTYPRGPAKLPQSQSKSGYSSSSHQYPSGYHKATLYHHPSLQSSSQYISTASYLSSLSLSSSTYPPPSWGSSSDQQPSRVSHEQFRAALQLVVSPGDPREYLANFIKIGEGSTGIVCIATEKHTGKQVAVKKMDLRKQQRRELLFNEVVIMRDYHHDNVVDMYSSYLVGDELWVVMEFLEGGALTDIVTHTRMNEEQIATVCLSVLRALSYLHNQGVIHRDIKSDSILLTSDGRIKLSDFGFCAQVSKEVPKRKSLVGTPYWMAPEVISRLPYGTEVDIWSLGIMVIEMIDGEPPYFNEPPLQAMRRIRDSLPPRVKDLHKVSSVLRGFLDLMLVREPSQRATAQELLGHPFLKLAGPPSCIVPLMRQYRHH

What was measured:
[1] = molecular target: Myc-tagged RNF43 (RING finger 43), wild type (human) (UniProt Q68DV7); test: co-IP; AsPC-1 cells ectopically expressing Myc-tagged RNF43; reverse immunoprecipitation of Myc-RNF43, western blot; lysis in RIPA buffer (50 mM Tris-HCl pH 8.0, 150 mM NaCl, 1% NP-40, 0.5% deoxycholate, 0.1% SDS) with 5 mM N-ethylmaleimide; antibody at 4 °C overnight, Protein A/G Mag Sepharose
Flag-B-RAF K499R (human) = Flag-B-RAF K499R (human) (UniProt P15056); test: co-IP; PANC-1 cells transfected with control, wild-type or mutant B-RAF plasmids (MG132 treatment named for the K499R panel); immunoprecipitation with B-RAF antibody, RNF43 blotted and quantified; RIPA buffer with 5 mM N-ethylmaleimide, 4 °C overnight, Protein A/G Mag Sepharose
Flag-B-RAF T491A (human) = Flag-B-RAF T491A (human) (UniProt P15056); test: as above
[2] = molecular target: Flag-B-RAF wild type (human) (UniProt P15056); test: as above

binding [1] | binding (Flag-B-RAF K499R (human)) | binding (Flag-B-RAF T491A (human)) | binding [2] | Substance
binds |  |  |  | B-RAF (in AsPC-1 cells) (from UniProt P15056 1-766)
 | binds | binds | binds | RNF43, endogenous wild type in PANC-1 cells (from UniProt Q68DV7 24-783) (enzyme)
no binding |  |  |  | PAK5 (p21-activated kinase 5) (from UniProt Q9P286 1-719)
